Source: patent publication US7420029B2, “Tissue-specific transporter inhibitor” (Japan Science and Technology Agency, priority 2001, dated 2008)

Biological target: T1, PEPT 1 (Rattus norvegicus, UniProt P51574)
T1 sequence (P51574 1-710): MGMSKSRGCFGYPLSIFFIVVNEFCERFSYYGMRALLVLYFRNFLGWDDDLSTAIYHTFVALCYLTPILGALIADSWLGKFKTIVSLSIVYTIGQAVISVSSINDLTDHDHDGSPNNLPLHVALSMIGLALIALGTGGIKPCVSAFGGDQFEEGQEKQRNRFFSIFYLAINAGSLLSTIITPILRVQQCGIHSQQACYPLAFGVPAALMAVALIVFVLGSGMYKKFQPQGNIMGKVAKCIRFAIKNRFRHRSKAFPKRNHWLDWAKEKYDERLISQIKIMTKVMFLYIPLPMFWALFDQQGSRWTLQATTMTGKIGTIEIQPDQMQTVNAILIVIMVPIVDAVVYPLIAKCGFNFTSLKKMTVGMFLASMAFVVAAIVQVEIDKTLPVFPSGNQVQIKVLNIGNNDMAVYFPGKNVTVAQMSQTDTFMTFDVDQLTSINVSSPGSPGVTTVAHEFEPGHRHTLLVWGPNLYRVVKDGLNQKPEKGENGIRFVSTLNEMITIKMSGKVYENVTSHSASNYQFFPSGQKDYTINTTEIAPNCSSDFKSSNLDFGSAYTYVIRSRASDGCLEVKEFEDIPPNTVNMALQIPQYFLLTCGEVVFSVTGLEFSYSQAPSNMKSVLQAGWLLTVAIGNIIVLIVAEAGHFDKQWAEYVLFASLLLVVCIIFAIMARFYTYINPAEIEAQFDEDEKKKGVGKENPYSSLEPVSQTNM
Conditions: male, Sprague-Dawley, in vivo, po, 5 mg/kg

- ke (elimination rate constant) of CDX: 0.68 ± 0.19 h⁻¹
Compound: CC1=C(C(=O)O)N2C(=O)C(NC(=O)C(N)c3ccccc3)C2SC1 (stereo not shown) [Cephalexin, cephalexin]
